T/C and survivor count data for three compounds are collected here from PubChem BioAssay AID294 (DTP/NCI, 2004).

The list does not hold the whole screen: it gathers some chemical classes. Other doses and runs of a compound may be missing. T/C: endpoint of the treated group in % of that of the vehicle group. Schedules are NCI's codes, taken here to give the interval after Q, in days (D) or hours (H), and the number of doses after X. Some entries were tested several times; their values stand side by side, smallest first. Some T/C values are negative: the treated tumours shrank. Some T/C values are followed by the survivors on the day toxicity was checked; where neither a count nor a note follows, no animal had died by that day. Some doses have a count of surviving animals in place of a T/C: the source files T/C as zero there, which appears to mark a toxic dose or a test without result, not a measured value. Survivors were counted at the toxicity check; its day is shown where the source gives one, and later deaths do not show.

The subject of the assay is MX-1 breast xenograft, nude mice, tumor weight change. As to the kind of experiment: NCI In Vivo Anticancer Drug Screen. Data for tumor model Human Mammary Carcinoma MX-1 Xenograft (subcutaneous) in NU/NU Swiss (nude) mice. The note with it: T/C endpoint: optimum tumor weight change, schedule: Q04DX003 (ip), higher T/C = larger tumour. How it is done: The antitumor activity of compounds was measured in mice bearing transplantable tumors. Survival or tumor size were measured and the results are expressed as the measurement made in the treated group (T) divided by the measurement made in the vehicle treated control group (C). The tumor model used in this assay is Human Mammary Carcinoma MX-1 Xenograft (subcutaneous) in NU/NU Swiss (nude) mice

On to `ClCCN(CCCl)c1ccccc1`, for which the T/C by setting is: (dose: 6.25 mg/kg/injection, vehicle: saline with Tween-80, evaluated on day 40) 69 % of control; (dose: 12.5 mg/kg/injection, vehicle: saline with Tween-80, evaluated on day 37) 103 % of control; (dose: 12.5 mg/kg/injection, vehicle: saline with Tween-80, evaluated on day 40) 61 and 140 % of control; (dose: 25.0 mg/kg/injection, vehicle: saline with Tween-80, evaluated on day 37) 76 % of control; (dose: 25.0 mg/kg/injection, vehicle: saline with Tween-80, evaluated on day 40) 55 and 59 % of control; (dose: 50.0 mg/kg/injection, vehicle: saline with Tween-80, evaluated on day 37) -41 % of control. In addition, the T/C is, setting by setting: (dose: 50.0 mg/kg/injection, vehicle: saline with Tween-80, evaluated on day 40) 44 [4 of 5 alive on day 40] and 48 % of control [4 of 5 alive on day 40]; (dose: 100.0 mg/kg/injection, vehicle: saline with Tween-80, evaluated on day 40) -42 % of control [4 of 5 alive on day 40]. Further, the survivor count (dose: 50.0 mg/kg/injection, vehicle: saline with Tween-80) is on record as 2 of 5 on day 38; the survivor count (dose: 100.0 mg/kg/injection, vehicle: saline with Tween-80) was 0 of 5 on day 40, 2 of 5 on day 38, 2 of 5 on day 40; the survivor count (dose: 200.0 mg/kg/injection, vehicle: saline with Tween-80) is 0 of 5 on day 38 and 0 of 5 on day 40.

With `CC1=CC(=O)C(N(CCCl)CCCl)=CC1=O`, the T/C (dose: 3.13 mg/kg/injection, vehicle: Klucel (hydroxypropylcellulose) (HPC), evaluated on day 34) was 49 % of control.

On to `C[N+](CCCl)(CCCl)Cc1ccc([N+](=O)[O-])cc1`, for which the T/C (dose: 12.5 mg/kg/injection, vehicle: saline, evaluated on day 34) is 97 % of control.
